The values below come from publication doi:10.1101/2024.07.01.601608.

Chains of the proteins cited; added tags and fusions are not shown.
UniProt P49336: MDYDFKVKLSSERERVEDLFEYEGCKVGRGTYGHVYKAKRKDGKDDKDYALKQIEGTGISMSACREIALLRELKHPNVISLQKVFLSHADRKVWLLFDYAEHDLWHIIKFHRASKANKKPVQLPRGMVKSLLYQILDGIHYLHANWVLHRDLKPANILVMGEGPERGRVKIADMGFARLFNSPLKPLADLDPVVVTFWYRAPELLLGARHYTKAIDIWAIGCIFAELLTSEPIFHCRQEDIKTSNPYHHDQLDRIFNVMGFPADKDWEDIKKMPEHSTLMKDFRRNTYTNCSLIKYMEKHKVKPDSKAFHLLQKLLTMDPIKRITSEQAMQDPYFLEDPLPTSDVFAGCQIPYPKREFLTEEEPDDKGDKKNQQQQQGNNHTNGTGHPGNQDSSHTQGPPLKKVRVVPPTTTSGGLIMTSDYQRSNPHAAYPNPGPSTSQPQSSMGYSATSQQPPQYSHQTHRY

No constants are given. Whether binding was seen depends on the method and setting. In cells and extracts the contact can be indirect. A yes stands for co-enrichment or nearness to the bait. Other partners may have been found. No binding means not detected with the bait. For some assays here: Sequences can lack the tags named with a protein.

Assay [1] concerns the target Flag-tagged CDK8 expressed in 293-F cells (human) (UniProt P49336). The assay is described as follows: affinity purification with mass spectrometry.
For assay [2], the target named is T1, Flag-tagged MED13 IDRc (residues 500-1069) expressed in 293-F cells (human) (UniProt Q9UHV7).
T1 sequence: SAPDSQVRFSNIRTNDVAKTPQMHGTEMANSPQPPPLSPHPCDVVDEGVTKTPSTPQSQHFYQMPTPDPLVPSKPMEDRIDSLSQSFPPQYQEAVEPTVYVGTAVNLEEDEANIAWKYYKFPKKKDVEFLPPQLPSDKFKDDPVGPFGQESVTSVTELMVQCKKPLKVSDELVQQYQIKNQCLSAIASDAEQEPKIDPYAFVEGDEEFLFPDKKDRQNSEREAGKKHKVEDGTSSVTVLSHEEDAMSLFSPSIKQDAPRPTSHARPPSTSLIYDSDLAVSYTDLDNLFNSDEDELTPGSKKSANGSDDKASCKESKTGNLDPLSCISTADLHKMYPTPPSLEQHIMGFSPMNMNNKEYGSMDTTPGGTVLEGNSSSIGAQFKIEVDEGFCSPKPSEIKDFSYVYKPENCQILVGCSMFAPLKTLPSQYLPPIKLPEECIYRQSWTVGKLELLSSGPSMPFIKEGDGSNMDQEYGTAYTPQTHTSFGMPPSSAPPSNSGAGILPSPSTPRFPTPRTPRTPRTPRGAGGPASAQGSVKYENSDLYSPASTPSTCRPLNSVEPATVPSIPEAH
The assay is described as follows: affinity purification with mass spectrometry.

B1: MED26 (endogenous) (protein, UniProt O95402 1-600)
chain: MTAAPASPQQIRDRLLQAIDPQSNIRNMVAVLEVISSLEKYPITKEALEETRLGKLINDVRKKTKNEELAKRAKKLLRSWQKLIEPAHQHEAALRGLAGATGSANGGAHNCRPEVGAAGPPRSIHDLKSRNDLQRLPGQRLDRLGSRKRRGDQRDLGHPGPPPKVSKASHDPLVPNSSPLPTNGISGSPESFASSLDGSGHAGPEGSRLERDENDKHSGKIPVNAVRPHTSSPGLGKPPGPCLQPKASVLQQLDRVDETPGPPHPKGPPRCSFSPRNSRHEGSFARQQSLYAPKGSVPSPSPRPQALDATQVPSPLPLAQPSTPPVRRLELLPSAESPVCWLEQPESHQRLAGPGCKAGLSPAEPLLSRAGFSPDSSKADSDAASSGGSDSKKKKRYRPRDYTVNLDGQVAEAGVKPVRLKERKLTFDPMTRQIKPLTQKEPVRADSPVHMEQQSRTELDKQEAKASLQSPFEQTNWKELSRNEIIQSYLSRQSSLLSSSGAQTPGAHHFMSEYLKQEESTRQGARQLHVLVPQSPPTDLPGLTREVTQDDLDRIQASQWPGVNGCQDTQGNWYDWTQCISLDPHGDDGRLNILPYVCLD
With B1, the binding result in assay [1] and in assay [2] was “no binding” each time.
